Experimental data reported in PubChem BioAssay AID1671190 (National Center for Advancing Translational Sciences (NCATS), 2021).
Out of some 580,000 compounds screened, about 6,100 (1.1%) were called active. The inconclusive results got no clear call from the source; some entries with a clear call stand among them for comparison. Calls follow the shape of the dose curve; as a rule, active = well fitted inhibition curve with a large enough effect; inconclusive = small, poorly fitted or top-dose-only effect, or another doubt; inactive = no such curve, though single readings can be large or run the other way. Potencies beside an inconclusive call are fits to weak or partial responses and may not hold up.
% is scaled to controls: 0 for no effect and ±100 for the full control effect; potency is read from the fitted curve at half-maximal effect.

Protein sequences, listed by entry. Tags and fused reporters are not part of them. Lines headed by an entry give the natural chain unless they say otherwise; changes in a name come on top.
UniProt P18054: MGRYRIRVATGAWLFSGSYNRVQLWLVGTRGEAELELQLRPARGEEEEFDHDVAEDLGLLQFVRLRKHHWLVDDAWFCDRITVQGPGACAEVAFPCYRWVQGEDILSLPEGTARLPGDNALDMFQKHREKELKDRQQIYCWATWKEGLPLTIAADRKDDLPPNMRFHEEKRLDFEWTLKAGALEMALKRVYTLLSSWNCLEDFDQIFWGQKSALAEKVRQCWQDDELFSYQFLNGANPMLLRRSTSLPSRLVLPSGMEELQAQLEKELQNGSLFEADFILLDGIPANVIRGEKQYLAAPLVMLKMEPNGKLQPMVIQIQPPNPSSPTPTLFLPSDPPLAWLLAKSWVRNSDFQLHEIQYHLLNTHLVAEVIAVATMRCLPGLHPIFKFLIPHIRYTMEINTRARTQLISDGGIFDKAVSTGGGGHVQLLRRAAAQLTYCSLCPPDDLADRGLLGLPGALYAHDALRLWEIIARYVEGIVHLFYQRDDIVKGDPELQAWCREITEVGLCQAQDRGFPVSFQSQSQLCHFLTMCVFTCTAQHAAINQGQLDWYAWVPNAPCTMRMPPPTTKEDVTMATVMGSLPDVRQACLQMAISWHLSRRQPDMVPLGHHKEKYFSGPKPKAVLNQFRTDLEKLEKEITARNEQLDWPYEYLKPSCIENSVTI

The compounds below were run against Polyunsaturated fatty acid lipoxygenase ALOX12 (Homo sapiens) (UniProt P18054) (assay: Primary qHTS assay for inhibitors of human arachidonate 12S-lipoxygenase (ALOX12): Round 2). Conditions: purified 12hLO, xylenol orange hydroperoxide absorbance; activity change, negative = inhibition: at 108 µM (top of the series) unless noted.
Procedure, shortened: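 Purified human 12hLO (150 nM final) in 25 mM Hepes, 0.01% Triton X-100, pH 7.0 was preincubated 15 min at room temperature with compound. Then 40 uM arachidonic acid was added, 30 min. Hydroperoxide was read by Fe-XO absorbance ratio 573/405 nm.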
With `CC(C)CNC(=S)N1CCN(Cc2ccc3c(c2)OCO3)CC1` the Potency was inconclusive: 1.26 µM [inhibitor, full curve, poor fit].
`CN(C)NC(=S)NC1CC2CCC1C2` (stereo not drawn) was tested, and the Potency was active: 17.8 µM.
In the case of `CSc1ncccc1C(=O)OCC(=O)NC12CC3CC(CC(C3)C1)C2`, the “activity change, negative = inhibition” value is reported as inactive: -12.9%.
`COc1ccc(C(=O)OCc2nc(-c3ccc(F)cc3)no2)cc1S(=O)(=O)N1CCCCC1C` (stereo not drawn) was tested, and the Potency was inconclusive: 50.1 µM [inhibitor, partial curve, poor fit].
`COC(=O)C1=C(C)NC2=C(C(=O)CCC2)C1c1ccc(-c2ccsc2C(=O)OC)o1` (stereo not drawn) was tested, and the activity change, negative = inhibition was inconclusive: -62.9% [inhibitor].
`CCCOc1c(Cl)cc(C(=O)Nc2ccc3c(c2)OCO3)cc1OCC` was tested, and the “activity change, negative = inhibition” value was inactive: 34.3%.
With `Cc1ccnc(NS(=O)(=O)c2ccc(NC(=O)c3cc(=O)c4ccccc4o3)cc2)n1` the Potency was inconclusive: 31.6 µM [inhibitor, partial curve].
For `Cn1cnnc1-c1ccc(NS(=O)(=O)c2ccc3c(c2)CCC3)cc1`, the Potency was active: 28.2 µM.
In the case of `CCCc1cc(-n2ccnc2)n2c(nc3ccccc32)c1C#N`, the Potency is reported as inconclusive: 12.6 µM [inhibitor, partial curve, poor fit].
In the case of `Cc1ccc(CNC(=O)CCNC(=O)c2ccc([N+](=O)[O-])cc2)cc1`, the Potency is reported as inconclusive: 89.1 µM [inhibitor, partial curve, poor fit].
`COc1cccc(C2=NN(C(=O)c3cccs3)C(O)(C(F)(F)F)C2)c1` (stereo not drawn) was tested, and the Potency was inconclusive: 70.8 µM [inhibitor, partial curve, poor fit].
`COc1ccc(CN2CCCCCC2)cc1` was tested, and the Potency was inconclusive: 1.58 µM [inhibitor, full curve].
`Cc1nc(-c2ccc(NC(=O)/C=C\C(=O)O)cc2)cs1` was tested, and the Potency was inconclusive: 31.6 µM [inhibitor, partial curve, poor fit].
`COc1ccccc1C(=O)N1CCCCC1c1noc(COc2ccc(C)cc2)n1` (stereo not drawn) was tested, and the Potency was inconclusive: 56.2 µM [inhibitor, partial curve, poor fit].
For `COc1cc(/C=C(\C#N)C(N)=C(C#N)C#N)cc(Cl)c1O`, the Potency was inconclusive: 35.5 µM [inhibitor, partial curve, poor fit].
In the case of `COCCNC(=S)N/N=C(\C)c1cccc([N+](=O)[O-])c1`, the Potency is reported as inconclusive: 89.1 µM [inhibitor, single point].
In the case of `CCCCCCCNC(=O)C1(CC2CC(c3ccccc3)=NO2)CCN(C(=O)OC(C)(C)C)CC1` (stereo not drawn), the Potency is reported as inconclusive: 44.7 µM [inhibitor, partial curve, poor fit].
For `Cc1cccc(C2C3=C(COC3=O)Nc3c2c(=O)[nH]c(=O)n3CC(C)C)c1` (stereo not drawn), the Potency was inconclusive: 89.1 µM [inhibitor, partial curve, poor fit].
